No constants are given. Whether binding was seen depends on the method and setting. In cells and extracts the contact can be indirect. Some results given as binding are weak or reduced against the parent protein; the word gives no strength.
Legend:
Experiment in all cases: pull-down; His-tagged bait expressed in HEK293T cells for 48 h; lysate (25 mM Tris, 150 mM NaCl, 1.0 mM EDTA, 1% NP-40, 5% glycerol, pH 7.4) bound to Ni-NTA magnetic silica resin, washed four times, eluted with imidazole, immunoblotted; called co-immunoprecipitation in the legend; in Fig. 5C cells were also co-transfected with pQ74 and pDsRed2 or pDsRed2-NAGK
[1] = target: His-tagged DYNC1LI1 (pENTER-CMV-DYNC1LI1) (UniProt Q9Y6G9)
[2] = target: His-tagged DYNLRB1 (pENTER-CMV-DYNLRB1) (UniProt Q9NP97)
[3] = target: His-tagged NAGK (N-acetylglucosamine kinase; pENTER-CMV-NAGK) (UniProt Q9UJ70)

By UniProt entry, the sequences of proteins in these tests, tags left out.
UniProt Q9Y6G9: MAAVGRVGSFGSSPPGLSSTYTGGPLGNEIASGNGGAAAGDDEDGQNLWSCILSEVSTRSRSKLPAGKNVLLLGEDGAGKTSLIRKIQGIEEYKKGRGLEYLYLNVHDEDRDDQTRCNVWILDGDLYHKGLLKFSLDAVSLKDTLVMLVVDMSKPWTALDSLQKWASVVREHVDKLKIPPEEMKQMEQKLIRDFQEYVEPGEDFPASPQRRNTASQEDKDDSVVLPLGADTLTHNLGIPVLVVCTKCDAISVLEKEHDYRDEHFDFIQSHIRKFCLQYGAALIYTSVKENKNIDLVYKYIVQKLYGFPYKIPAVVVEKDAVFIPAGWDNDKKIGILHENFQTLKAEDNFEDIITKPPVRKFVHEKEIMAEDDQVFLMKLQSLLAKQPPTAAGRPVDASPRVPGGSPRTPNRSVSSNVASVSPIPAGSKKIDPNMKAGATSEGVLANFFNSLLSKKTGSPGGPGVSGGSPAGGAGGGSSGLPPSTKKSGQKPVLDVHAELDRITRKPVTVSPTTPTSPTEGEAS
UniProt Q9NP97: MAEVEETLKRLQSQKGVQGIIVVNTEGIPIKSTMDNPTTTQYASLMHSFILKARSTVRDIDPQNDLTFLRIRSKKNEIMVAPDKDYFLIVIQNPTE
UniProt Q9UJ70: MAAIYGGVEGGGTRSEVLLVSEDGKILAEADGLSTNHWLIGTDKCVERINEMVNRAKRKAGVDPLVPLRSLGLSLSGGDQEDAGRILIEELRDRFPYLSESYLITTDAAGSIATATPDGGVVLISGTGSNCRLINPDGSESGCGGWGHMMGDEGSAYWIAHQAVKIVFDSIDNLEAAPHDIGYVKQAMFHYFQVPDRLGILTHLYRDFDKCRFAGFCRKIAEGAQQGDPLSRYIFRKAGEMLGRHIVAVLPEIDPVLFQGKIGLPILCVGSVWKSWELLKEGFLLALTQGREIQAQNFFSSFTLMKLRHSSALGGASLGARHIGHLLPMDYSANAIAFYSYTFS

| binding [1] | binding [2] | binding [3] | Substance |
| --- | --- | --- | --- |
| binds |  |  | DsRed2-NAGK (pDsRed2-tagged wild-type NAGK) (from UniProt Q9UJ70 1-344) |
| binds | binds |  | NAGK (N-acetylglucosamine kinase) of HEK293T cells (from UniProt Q9UJ70 1-344) |
|  |  | binds | dynein light intermediate chain 1 (DYNC1LI1), endogenous (from UniProt Q9Y6G9 1-523) |
|  |  | binds | dynein light chain roadblock type 1 (DYNLRB1), endogenous (from UniProt Q9NP97 1-96) |

Source: paper PMC7427805
